# Experimental data as given in patent US8471035B1, “Two-photon absorbing arylamine-endcapped and dialkylfluorene-bridged benzobisthiazole compounds with high oleophilicity” (The United States of America as represented by the …, priority 2011, dated 2013).
# Experiment: Femtosecond two-photon-induced fluorescence (TPIF) two-photon spectrum
# Type: physicochemical
# Conditions: THF solution (10^−5 M)
smiles,measurement,setting,value
"CC(C)CCCC(C)CCC1(CCC(C)CCCC(C)C)c2cc(-c3ccc(N(c4ccccc4)c4ccccc4)cc3)ccc2-c2ccc(-c3nc4cc5sc(-c6ccc7c(c6)C(CCC(C)CCCC(C)C)(CCC(C)CCCC(C)C)c6cc(-c8ccc(N(c9ccccc9)c9ccccc9)cc8)ccc6-7)nc5cc4s3)cc21 (centres unmarked) [AF-358-118, 2,6-Bis{4-diphenylaminophenyl-7-[9,9-bis(3,7-dimethyloctyl)]fluoren-2-yl}-benzo[1,2-d;4,5-d′]bisthiazole]",σ2′ value at 800 nm (TPIF),800 nm,~800 GM
same,peak σ2′ value (TPIF),at ˜760 nm,"1,520 GM"
